From the supplement of paper PMC12823440, “Inhibitors supercharge kinase turnover through native proteolytic circuits” (Nature, 2025)
Counter-ions that a name gives are not always drawn. Some of the results follow. The calls rarely recur for the same compound in another form.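 Kinases were expressed as nanoluciferase fusions in K562 cells and luminescence was read every 4 h between 2 and 18 h as percent of control, DMSO set to 100% and a positive control to 0%. A time point counts as decreased when the signal drops significantly (2 sigma). The hit call is the authors' own, does not follow from the count of time points alone, and its rule is not shown.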

The chains behind the UniProt entries cited, without tags or fusion partners. Where a name states a change or a piece, a line headed by the entry shows the natural chain unless it says otherwise.
UniProt Q9UQM7, whole entry: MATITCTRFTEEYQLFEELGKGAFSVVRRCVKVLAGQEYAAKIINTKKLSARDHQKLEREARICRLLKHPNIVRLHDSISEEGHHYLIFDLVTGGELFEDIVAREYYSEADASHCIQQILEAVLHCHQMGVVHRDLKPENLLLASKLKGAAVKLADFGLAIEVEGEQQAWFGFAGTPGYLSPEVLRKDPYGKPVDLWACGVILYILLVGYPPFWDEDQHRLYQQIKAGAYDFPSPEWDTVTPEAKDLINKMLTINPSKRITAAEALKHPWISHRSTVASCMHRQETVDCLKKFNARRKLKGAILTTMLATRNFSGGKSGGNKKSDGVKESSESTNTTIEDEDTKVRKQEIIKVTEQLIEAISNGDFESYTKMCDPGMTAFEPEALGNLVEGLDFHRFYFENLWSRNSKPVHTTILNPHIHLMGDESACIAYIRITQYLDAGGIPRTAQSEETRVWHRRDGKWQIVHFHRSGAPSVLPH
UniProt Q13555: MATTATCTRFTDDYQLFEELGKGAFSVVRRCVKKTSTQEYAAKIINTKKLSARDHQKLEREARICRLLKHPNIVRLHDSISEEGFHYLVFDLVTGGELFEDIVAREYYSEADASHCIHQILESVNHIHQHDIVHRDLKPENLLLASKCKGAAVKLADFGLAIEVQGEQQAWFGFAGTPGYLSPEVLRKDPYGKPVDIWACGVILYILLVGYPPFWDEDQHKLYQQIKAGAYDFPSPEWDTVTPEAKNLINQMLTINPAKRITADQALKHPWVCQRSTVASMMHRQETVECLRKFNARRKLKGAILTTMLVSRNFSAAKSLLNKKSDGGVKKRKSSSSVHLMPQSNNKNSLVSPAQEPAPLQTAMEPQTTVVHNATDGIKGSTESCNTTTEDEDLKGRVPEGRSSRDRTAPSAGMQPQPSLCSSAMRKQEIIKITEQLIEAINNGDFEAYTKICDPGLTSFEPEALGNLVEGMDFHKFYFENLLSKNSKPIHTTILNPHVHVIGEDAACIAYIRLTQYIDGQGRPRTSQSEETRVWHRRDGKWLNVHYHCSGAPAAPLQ
UniProt Q15131: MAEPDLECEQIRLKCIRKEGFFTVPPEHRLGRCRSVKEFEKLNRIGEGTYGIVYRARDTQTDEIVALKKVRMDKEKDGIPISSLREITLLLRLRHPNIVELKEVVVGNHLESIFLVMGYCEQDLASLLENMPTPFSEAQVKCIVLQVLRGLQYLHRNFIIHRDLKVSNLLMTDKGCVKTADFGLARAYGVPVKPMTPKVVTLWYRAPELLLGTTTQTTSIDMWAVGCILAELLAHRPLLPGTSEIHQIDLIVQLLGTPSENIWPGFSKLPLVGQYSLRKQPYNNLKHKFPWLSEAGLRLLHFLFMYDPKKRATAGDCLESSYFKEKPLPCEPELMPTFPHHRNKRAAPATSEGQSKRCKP
UniProt Q00526: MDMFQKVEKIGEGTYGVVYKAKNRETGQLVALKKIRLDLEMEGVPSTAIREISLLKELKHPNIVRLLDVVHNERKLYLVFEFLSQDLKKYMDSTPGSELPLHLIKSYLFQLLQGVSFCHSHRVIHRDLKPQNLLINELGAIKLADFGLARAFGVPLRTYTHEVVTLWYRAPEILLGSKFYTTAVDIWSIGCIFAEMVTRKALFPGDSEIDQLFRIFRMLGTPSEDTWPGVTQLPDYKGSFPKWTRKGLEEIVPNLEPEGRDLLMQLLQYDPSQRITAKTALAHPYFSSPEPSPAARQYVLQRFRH
UniProt Q00535, whole entry, looked up: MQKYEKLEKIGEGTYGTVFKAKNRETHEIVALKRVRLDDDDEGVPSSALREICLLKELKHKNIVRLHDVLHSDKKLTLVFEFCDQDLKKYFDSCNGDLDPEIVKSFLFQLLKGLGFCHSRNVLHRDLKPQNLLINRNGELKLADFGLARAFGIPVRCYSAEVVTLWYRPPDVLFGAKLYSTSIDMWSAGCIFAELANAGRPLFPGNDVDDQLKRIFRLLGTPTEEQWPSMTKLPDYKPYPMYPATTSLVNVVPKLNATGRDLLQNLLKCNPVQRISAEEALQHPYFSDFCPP
UniProt Q00534, whole entry: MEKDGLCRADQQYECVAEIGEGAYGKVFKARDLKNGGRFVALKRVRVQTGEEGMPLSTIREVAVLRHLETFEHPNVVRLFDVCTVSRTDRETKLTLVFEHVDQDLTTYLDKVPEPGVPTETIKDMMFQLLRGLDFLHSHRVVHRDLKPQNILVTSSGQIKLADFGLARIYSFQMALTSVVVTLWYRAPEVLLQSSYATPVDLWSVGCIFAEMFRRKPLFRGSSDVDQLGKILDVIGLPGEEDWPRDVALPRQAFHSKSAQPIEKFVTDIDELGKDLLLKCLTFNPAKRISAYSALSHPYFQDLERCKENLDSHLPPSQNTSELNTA
UniProt O96017, whole entry: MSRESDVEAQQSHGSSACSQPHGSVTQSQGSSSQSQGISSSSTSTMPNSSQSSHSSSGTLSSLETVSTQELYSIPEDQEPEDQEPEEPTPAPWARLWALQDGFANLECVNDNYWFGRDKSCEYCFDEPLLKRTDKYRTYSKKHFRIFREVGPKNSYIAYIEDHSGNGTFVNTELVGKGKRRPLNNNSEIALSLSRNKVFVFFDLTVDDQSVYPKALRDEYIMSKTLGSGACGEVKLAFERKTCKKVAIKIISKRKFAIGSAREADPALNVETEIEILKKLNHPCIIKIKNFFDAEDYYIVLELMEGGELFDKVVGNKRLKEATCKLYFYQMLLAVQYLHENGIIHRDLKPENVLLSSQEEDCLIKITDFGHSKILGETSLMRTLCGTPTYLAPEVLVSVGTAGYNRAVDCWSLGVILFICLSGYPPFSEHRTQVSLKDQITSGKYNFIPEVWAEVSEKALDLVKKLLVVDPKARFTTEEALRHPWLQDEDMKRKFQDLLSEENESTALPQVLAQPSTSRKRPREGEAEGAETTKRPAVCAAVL
UniProt P07333, whole entry: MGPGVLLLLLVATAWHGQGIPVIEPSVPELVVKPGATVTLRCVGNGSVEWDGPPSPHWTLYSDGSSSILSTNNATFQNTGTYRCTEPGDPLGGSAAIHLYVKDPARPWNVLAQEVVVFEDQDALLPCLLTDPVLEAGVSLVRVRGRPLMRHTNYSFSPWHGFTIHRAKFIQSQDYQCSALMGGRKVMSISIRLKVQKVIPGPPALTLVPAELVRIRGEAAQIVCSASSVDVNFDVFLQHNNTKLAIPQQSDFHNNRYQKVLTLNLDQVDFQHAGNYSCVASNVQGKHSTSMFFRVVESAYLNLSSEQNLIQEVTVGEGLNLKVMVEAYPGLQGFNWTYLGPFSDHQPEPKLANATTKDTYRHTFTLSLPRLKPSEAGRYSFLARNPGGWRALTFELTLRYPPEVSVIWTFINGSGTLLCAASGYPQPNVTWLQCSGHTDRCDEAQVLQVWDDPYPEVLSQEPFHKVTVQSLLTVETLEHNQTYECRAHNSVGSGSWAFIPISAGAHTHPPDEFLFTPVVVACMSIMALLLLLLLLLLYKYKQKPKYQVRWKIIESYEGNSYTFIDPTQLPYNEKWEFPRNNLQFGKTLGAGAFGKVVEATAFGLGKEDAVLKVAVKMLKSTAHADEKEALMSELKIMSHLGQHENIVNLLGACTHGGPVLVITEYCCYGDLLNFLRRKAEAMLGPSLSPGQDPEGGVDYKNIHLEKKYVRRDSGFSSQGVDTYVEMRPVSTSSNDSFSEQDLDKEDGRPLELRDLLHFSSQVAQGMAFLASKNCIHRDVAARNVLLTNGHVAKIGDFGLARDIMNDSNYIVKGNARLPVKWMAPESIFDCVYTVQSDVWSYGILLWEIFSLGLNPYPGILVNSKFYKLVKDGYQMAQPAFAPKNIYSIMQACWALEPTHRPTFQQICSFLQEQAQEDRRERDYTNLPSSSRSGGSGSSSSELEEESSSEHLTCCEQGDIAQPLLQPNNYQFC
UniProt P41240: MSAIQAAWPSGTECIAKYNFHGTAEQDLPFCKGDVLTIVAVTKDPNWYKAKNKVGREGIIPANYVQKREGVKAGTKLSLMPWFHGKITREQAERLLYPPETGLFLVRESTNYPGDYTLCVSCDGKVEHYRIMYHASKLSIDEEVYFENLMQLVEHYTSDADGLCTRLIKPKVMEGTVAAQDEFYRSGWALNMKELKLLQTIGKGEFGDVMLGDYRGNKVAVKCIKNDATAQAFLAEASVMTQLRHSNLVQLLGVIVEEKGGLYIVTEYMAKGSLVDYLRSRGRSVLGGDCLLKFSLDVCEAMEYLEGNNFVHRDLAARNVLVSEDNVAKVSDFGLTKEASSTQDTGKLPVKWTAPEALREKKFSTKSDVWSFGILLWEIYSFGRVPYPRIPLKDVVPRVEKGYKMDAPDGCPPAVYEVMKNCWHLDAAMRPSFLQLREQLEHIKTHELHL

Legend:
Assay in all cases: number of time points (of 5) at which kinase-Nluc abundance scored as decreased, DMSO-normalised (count); higher = more persistent destabilization
Settings in all cases: K562; 2-18 h
[1] = target: CAMK2A (UniProt Q9UQM7)
[2] = target: CAMK2G (UniProt Q13555)
[3] = target: CDK10 (UniProt Q15131)
[4] = target: CDK2 (UniProt P24941)
[5] = target: CDK3 (UniProt Q00526)
[6] = target: CDK5 (UniProt Q00535)
[7] = target: CDK6 (UniProt Q00534)
[8] = target: CHEK2 (UniProt O96017)
[9] = target: CSF1R (UniProt P07333)
[10] = target: CSK (UniProt P41240)

Measured: number of time points

CN1CCN(c2ccc(NC(=O)c3ccc(C#N)o3)c(N3CCCCC3)c2)CC1 (10 µM)
0: [1] | [2] | [3] | [4] | [5] | [6] | [7] | [8] | [9] | [10]

COC(=O)/C=C/c1ccc(O)c(OC)c1 [Ferulic acid methyl ester] (10 µM)
0: [1] | [2] | [3] | [4] | [5] | [6] | [7] | [8] | [9] | [10]

C=CC(=O)Nc1cccc(Oc2nc(Nc3ccc(N4CCN(C)CC4)cc3)nc3ccsc23)c1 [Olmutinib] (2.5 µM)
0: [1] | [2] | [3] | [4] | [5] | [6] | [7] | [8] | [9] | [10]

CC[C@@H]1CN(C(=O)NCC(F)(F)F)C[C@@H]1c1cnc2cnc3[nH]ccc3n12 [Upadacitinib] (10 µM)
0: [1] | [2] | [3] | [4] | [5] | [6] | [7] | [8] | [9] | [10]

CC(C)c1cnn2c(NCc3ccccc3)cc(NCCCCCCN)nc12 [BS-181 (hydrochloride)] (10 µM)
0: [1] | [2] | [3] | [4] | [5] | [6] | [7] | [8] | [9] | [10]

COc1cccc(Nc2ncnn3ccc(CN4CC[C@@H](N)[C@H](O)C4)c23)c1 (2.5 µM)
0: [1] | [3] | [4] | [5] | [6] | [7] | [8] | [9] | [10]
1: [2]

CC1=C(C(=O)Nc2ccc3[nH]ncc3c2)C(c2ccc(F)c(C(=O)NCc3ccccn3)c2)NC(=O)N1 (stereo not given) (10 µM)
0: [1] | [2] | [3] | [4] | [5] | [6] | [7] | [8] | [9] | [10]

CCc1ccc(NC(=O)Nc2ccccc2)cc1 (10 µM)
0: [1] | [2] | [3] | [4] | [5] | [6] | [7] | [8] | [9] | [10]

COc1ccc(C(=O)c2cn(C(C)C)c3ncnc(N)c23)cc1NC(=O)Nc1ccc(Cl)cc1Cl (10 µM)
0: [1] | [2] | [3] | [5] | [6] | [8] | [9] | [10]
2: [4]
4: [7]

O=C(N/N=C/c1ccc([N+](=O)[O-])o1)c1ccc(O)cc1 [Nifuroxazide] (10 µM)
2: [3]
3: [2] | [8] | [9]
0: [1] | [4] | [5] | [6] | [7] | [10]

N#Cc1c[nH]c2ccc(-c3ccc(-c4c(O)cccc4O)cc3)cc12 (10 µM)
0: [1] | [2] | [3] | [4] | [5] | [6] | [7] | [8] | [9] | [10]

Cn1cc(-c2cn3nccc3c(-c3cnn([C@]4(CC#N)C[C@@H](C#N)C4)c3)n2)cn1 (10 µM)
0: [1] | [2] | [3] | [4] | [5] | [6] | [7] | [8] | [9] | [10]

CC(C)n1cnnc1-c1cccc(NC(=O)c2cc3ccc(F)cc3[nH]2)n1 (2.5 µM)
0: [1] | [3] | [4] | [5] | [6] | [7] | [9] | [10]
3: [2] | [8]

CN(C/C=C/C(=O)Nc1ccc(C(=O)Nc2cccc(Nc3ncc(Cl)c(-c4c[nH]c5ccccc45)n3)c2)cc1)CCCNC(=O)NCCOCCOCCOCCNC(=O)CCCC[C@@H]1SC[C@@H]2NC(=O)N[C@@H]21 (2.5 µM)
0: [1] | [2] | [3] | [4] | [5] | [7] | [8] | [10]
2: [6] | [9]

CC(C)Cn1cc(C#N)c2cc(Oc3ccc(NC(=O)[C@@H]4CCCN4)cc3)ccc21 (10 µM)
0: [1] | [2] | [3] | [4] | [5] | [6] | [7] | [8] | [9] | [10]

COC(=O)[C@]1(C)CC[C@]2(C(=O)O[C@@H]3O[C@H](CO)[C@@H](O)[C@H](O)[C@H]3O)CC[C@]3(C)C(=CC[C@@H]4[C@@]5(C)C[C@H](O)[C@H](O[C@@H]6OC[C@@H](O[C@@H]7O[C@H](CO)[C@@H](O)[C@H](O)[C@H]7O)[C@H](O)[C@H]6O)[C@@](C)(CO)C5CC[C@]43C)[C@H]2C1 (stereo not given in full) [Esculentoside H] (10 µM)
0: [1] | [2] | [3] | [4] | [5] | [6] | [7] | [8] | [9] | [10]

Three entries drawn at random from the list so far, as already listed:
C=CC(=O)Nc1cccc(Oc2nc(Nc3ccc(N4CCN(C)CC4)cc3)nc3ccsc23)c1 [Olmutinib] (2.5 µM)
0: [1] | [2] | [3] | [4] | [5] | [6] | [7] | [8] | [9] | [10]

O=C(N/N=C/c1ccc([N+](=O)[O-])o1)c1ccc(O)cc1 [Nifuroxazide] (10 µM)
2: [3]
3: [2] | [8] | [9]
0: [1] | [4] | [5] | [6] | [7] | [10]

CN1CCN(c2ccc(NC(=O)c3ccc(C#N)o3)c(N3CCCCC3)c2)CC1 (10 µM)
0: [1] | [2] | [3] | [4] | [5] | [6] | [7] | [8] | [9] | [10]

More results:

COc1cc(/C=C/c2ccc(NC(=O)/C=C/c3cc(OC)c(OC)c(OC)c3)cc2)cc(OC)c1 (2.5 µM)
0: [1] | [2] | [3] | [4] | [5] | [6] | [7] | [8] | [9] | [10]

Cc1ccc(-n2c(-c3ccc(O)cc3O)n[nH]c2=O)cc1 (10 µM)
0: [1] | [3] | [4] | [5] | [10]
5: [2] | [9]
1: [6]
2: [7]
4: [8]

C[C@@H](Nc1cc(F)cc(F)c1)c1cc(C(=O)N(C)C)cc2c(=O)cc(N3CCOCC3)oc12 (10 µM)
0: [1] | [2] | [3] | [4] | [5] | [6] | [7] | [8] | [9] | [10]

O=S(=O)(c1cccc2c(Cl)cccc12)N1CCCNCC1 (10 µM)
0: [1] | [2] | [3] | [4] | [5] | [6] | [7] | [8] | [9] | [10]

C[C@@]12CCc3occc3[C@H]1CC[C@@]13C[C@@H](CC[C@H]12)[C@@](O)(CO)C3 [Cafestol] (10 µM)
0: [1] | [2] | [3] | [4] | [5] | [6] | [7] | [8] | [9] | [10]

NC(=O)c1nc(-c2c(F)cccc2Cl)oc1Nc1ccc(C(=O)N2CCOCC2)cc1 (10 µM)
0: [1] | [2] | [3] | [4] | [5] | [6] | [7] | [8] | [9] | [10]

Cc1cccc(-c2[nH]c(C(C)(C)C)nc2-c2ccc3c(c2)OCO3)n1 (2.5 µM)
0: [1] | [2] | [3] | [4] | [5] | [6] | [7] | [8] | [9] | [10]

O=c1[nH]nc(Sc2ncc([N+](=O)[O-])s2)n1-c1ccc2c(c1)OCCO2 (2.5 µM)
0: [1] | [2] | [3] | [4] | [5] | [6] | [7] | [8] | [9] | [10]

CS(=O)(=O)N1CCc2c(-c3cnc(N)nc3)nc(N3CCOCC3)nc21 (10 µM)
0: [1] | [2] | [3] | [4] | [5] | [6] | [7] | [8] | [10]
1: [9]

O=c1sn(-c2cccc3ccccc23)c(=O)n1Cc1ccccc1 [Tideglusib] (10 µM)
0: [1] | [2] | [3] | [4] | [5] | [6] | [7] | [8] | [9] | [10]

CC(C)=CCC/C(C)=C/CC/C(C)=C/CSc1ccccc1C(=O)O [Salirasib] (10 µM)
0: [1] | [2] | [3] | [4] | [5] | [6] | [8] | [9] | [10]
3: [7]

O=C(O)[C@]1(Cc2cccc(Nc3nccs3)n2)CC[C@@H](Oc2cccc(Cl)c2F)CC1 (2.5 µM)
2: [2]
1: [8] | [9]
0: [1] | [3] | [4] | [5] | [6] | [7] | [10]

C[C@H](CC[C@@H](O)C(C)(C)O)[C@H]1CC[C@@]2(C)[C@@H]3CC=C4[C@@H](CC[C@H](O)C4(C)C)[C@]3(C)[C@H](O)C[C@]12C [Mogrol] (10 µM)
0: [1] | [2] | [3] | [4] | [5] | [6] | [7] | [8] | [9] | [10]

CCCCCC1CC1CC1CC1CCCCCCCC(=O)O (stereo not given) (10 µM)
0: [1] | [2] | [3] | [4] | [5] | [6] | [7] | [8] | [9] | [10]

CC(C)(C)c1ccc(C(=O)Nc2cn3cc(-n4ccnc4)ccc3n2)cc1 (10 µM)
0: [1] | [2] | [3] | [4] | [5] | [6] | [7] | [8] | [9] | [10]

CC(C)(O)c1cc2nc(-c3cnc(N)nc3)nc(N3CCOCC3)c2s1 (2.5 µM)
0: [1] | [2] | [3] | [4] | [5] | [6] | [7] | [10]
1: [8] | [9]
